Test results: US20110207628A1
Results are given in words; binding and its absence hold for the method and conditions named. In cells and extracts the contact can be indirect. Some binding calls cover weakened binding; strength is not graded here. Where a sequence is shown, tags or fusion partners need not be part of it. Values belong to the binder of their own block, whether it stands above or below them.

How the values were obtained:
[1] = target: T1, FLAG-tagged Tulp1 (full-length mouse Tulp1 with N-terminal FLAG tag) (mouse) (UniProt Q9Z273); experiment: GST pull-down, anti-FLAG Western blot
T1 sequence: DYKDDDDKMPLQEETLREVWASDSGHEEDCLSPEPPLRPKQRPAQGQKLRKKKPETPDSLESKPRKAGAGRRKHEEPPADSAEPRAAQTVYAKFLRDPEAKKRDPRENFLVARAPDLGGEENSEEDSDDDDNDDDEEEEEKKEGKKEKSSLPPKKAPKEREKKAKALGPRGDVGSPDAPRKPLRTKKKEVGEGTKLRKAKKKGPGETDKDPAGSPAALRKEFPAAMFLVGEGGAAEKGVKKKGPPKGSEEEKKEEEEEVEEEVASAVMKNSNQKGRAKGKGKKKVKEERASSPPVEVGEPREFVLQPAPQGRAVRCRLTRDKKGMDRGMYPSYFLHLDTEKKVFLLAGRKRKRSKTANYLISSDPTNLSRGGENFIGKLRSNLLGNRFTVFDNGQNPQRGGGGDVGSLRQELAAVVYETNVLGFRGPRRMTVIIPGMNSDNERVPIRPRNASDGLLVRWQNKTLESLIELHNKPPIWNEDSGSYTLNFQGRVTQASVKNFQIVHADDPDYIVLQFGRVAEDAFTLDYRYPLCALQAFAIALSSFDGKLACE

[2] = target: T2, FLAG-Hmgb2 (full-length mouse Hmgb2 with N-terminal FLAG tag) (mouse) (UniProt P30681); experiment: GST pull-down from FLAG-Hmgb2 HEK293 lysate, anti-FLAG Western blot
T2 sequence: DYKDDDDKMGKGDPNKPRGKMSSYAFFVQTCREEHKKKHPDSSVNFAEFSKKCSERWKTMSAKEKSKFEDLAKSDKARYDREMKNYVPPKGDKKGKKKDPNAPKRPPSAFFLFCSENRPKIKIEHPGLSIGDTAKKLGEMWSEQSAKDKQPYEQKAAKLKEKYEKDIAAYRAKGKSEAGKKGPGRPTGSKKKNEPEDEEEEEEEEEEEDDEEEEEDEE

[3] = target: T1, FLAG-tagged Tulp1 (full-length mouse Tulp1 with N-terminal FLAG tag) (mouse); experiment: GST pull-down from lysates of FLAG-tagged Tulps, anti-FLAG Western blot
[4] = target: T3, GST-tubby-F (GST fused to full-length mouse tubby) (Schistosoma japonicum; mouse) (UniProt P50586); experiment: GST pull-down: GST-tubby with lysate of cells expressing the FLAG-tagged protein, glutathione resin, Western blot with anti-FLAG mAb
T3 sequence (looked up): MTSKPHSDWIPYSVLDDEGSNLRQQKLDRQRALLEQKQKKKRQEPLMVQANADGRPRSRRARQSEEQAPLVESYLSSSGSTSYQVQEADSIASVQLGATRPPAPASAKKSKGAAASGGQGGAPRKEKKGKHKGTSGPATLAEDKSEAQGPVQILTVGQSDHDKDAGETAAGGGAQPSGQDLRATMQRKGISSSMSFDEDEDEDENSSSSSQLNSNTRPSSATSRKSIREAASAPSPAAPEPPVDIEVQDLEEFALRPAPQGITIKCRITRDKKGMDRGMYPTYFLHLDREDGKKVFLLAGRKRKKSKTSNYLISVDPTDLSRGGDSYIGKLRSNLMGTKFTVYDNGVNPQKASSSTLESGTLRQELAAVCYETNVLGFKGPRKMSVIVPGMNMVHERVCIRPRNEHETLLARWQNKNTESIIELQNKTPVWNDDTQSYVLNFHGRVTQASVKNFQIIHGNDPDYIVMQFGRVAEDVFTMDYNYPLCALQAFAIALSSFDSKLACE

binding [1]: binds
binding [2]: binds
binding [3]: binds
B1: GST-tubby-F (GST fused to full-length mouse tubby) (protein, UniProt P50586 1-505, looked up, not shown: a dimerising Fc or GST)
chain: T3 sequence (looked up)

binding [4]: binds
B2: FLAG-tagged Tulp1 (full-length mouse Tulp1 with N-terminal FLAG tag) (protein)
chain: T1 sequence
